These are yes or no findings as the source states them, for the method shown. Some binding calls cover weakened binding; strength is not graded here.
What follows are binders tested against T1, biotin-DLL4-hFc (UniProt Q9NR61 27-522, limits assumed, biotinylated (site not stated)) (assay: bispecific sandwich ELISA: antibody pre-incubated with 2 ug/ml biotin-DLL4-hFc, captured on VEGF-coated plate, detected with streptavidin-HRP).
T1 construct: not shown: human Fc (hFc)
Description: (§1) FIG. 7. Bispecific antibody ELISA. Bispecific antibodies 219R45-MB-21M18, 219R45-MB-21R79, 219R45-MB-21R75, and 219R45-MB-21R83 were diluted in blocking buffer (lx PBS, 0.1% gelatin, 0.1% Polysorbate-20, pH 7.4) containing 2 μg/ml biotin-DLL4-hFc. The antibodies were serially diluted 3-fold from 500 ng/ml to 0.008 ng/ml. The antibody samples were incubated for 2 hours in blocking buffer containing the biotin-DLL4-hFc. After incubation, the antibody samples were transferred to a VEGF-coated assay plate (100 ul/well) and incubated for 2 hours. Streptavidin-HRP was added to each well and incubated for 1 hr. TMB substrate was added to the wells with a 10 minute color development and the reaction was stopped with 2M sulfuric acid. Absorbance was read at 450-650 nm and the data analyzed using the 4-parameter fit within the Softmax Pro analysis program.
as §1, with “VEGF (ATGEN, South Korea) was coated onto Nunc maxisorb plates at 2 ug/ml (100 μl/well) and incubated overnight at 2-8° C. Bispecific” for “FIG. 7. Bispecific antibody ELISA. Bispecific”, “to the” for “to a”, “Streptavidin-HRP (Jackson ImmunoResearch, West Grove, Pa.)” for “Streptavidin-HRP”, “analysis program (Molecular Devices, Sunnyvale, Calif.).” for “analysis program.”

By UniProt entry, the sequences of proteins in these tests, tags left out. Residues count along the entry.
UniProt Q9NR61, residues 27-522: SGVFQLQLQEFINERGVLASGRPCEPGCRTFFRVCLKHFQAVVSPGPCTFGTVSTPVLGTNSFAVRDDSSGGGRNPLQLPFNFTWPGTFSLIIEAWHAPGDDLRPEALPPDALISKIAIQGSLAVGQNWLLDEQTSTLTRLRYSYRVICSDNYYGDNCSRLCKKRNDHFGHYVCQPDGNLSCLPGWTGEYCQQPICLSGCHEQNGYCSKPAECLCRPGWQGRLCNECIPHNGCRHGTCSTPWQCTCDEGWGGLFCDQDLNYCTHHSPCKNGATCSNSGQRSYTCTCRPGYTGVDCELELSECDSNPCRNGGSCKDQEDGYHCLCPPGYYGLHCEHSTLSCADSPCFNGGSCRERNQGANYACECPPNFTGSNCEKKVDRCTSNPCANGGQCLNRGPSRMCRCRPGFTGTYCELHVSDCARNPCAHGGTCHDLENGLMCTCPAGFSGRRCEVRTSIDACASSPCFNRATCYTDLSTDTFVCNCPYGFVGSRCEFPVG

Row | binding | Binder
1 | binds | anti-VEGF/anti-DLL4 bispecific antibody 219R45-MB-21R83 (bispecific antibody, human IgG2, Monovalent/bispecific IgG2 heterodimer with charge-modified CH3 domains and two identical light chains) heavy 1: QVQLVQSGAEVKKPGASVKVSCKASGYTFTNYWMHWVRQAPGQGLEWMGDINPSNGRTSYKEKFKRRVTLSVDKSSSTAYMELSSLRSEDTAVYFCTIHYDDKYYPLMDYWGQGTLVTVSSASTKGPSVFPLAPCSRSTSESTAALGCLVKDYFPEPVTVSWNSGALTSGVHTFPAVLQSSGLYSLSSVVTVPSSNFGTQTYTCNVDHKPSNTKVDKTVERKCCVECPPCPAPPVAGPSVFLFPPKPKDTLMISRTPEVTCVVVDVSHEDPEVQFNWYVDGVEVHNAKTKPREEQFNSTFRVVSVLTVVHQDWLNGKEYKCKVSNKGLPAPIEKTISKTKGQPREPQVYTLPPSREKMTKNQVSLTCLVKGFYPSDIAVEWESNGQPENNYKTTPPMLKSDGSFFLYSKLTVDKSRWQQGNVFSCSVMHEALHNHYTQKSLSLSPGK heavy 2: QVQLVQSGAEVKKPGASVKISCKASGYSFTAYYIHWVKQAPGQGLEWIGYISNYNRATNYNQKFKGRVTFTTDTSTSTAYMELRSLRSDDTAVYYCARDYDYDVGMDYWGQGTLVTVSSASTKGPSVFPLAPCSRSTSESTAALGCLVKDYFPEPVTVSWNSGALTSGVHTFPAVLQSSGLYSLSSVVTVPSSNFGTQTYTCNVDHKPSNTKVDKTVERKCCVECPPCPAPPVAGPSVFLFPPKPKDTLMISRTPEVTCVVVDVSHEDPEVQFNWYVDGVEVHNAKTKPREEQFNSTFRVVSVLTVVHQDWLNGKEYKCKVSNKGLPAPIEKTISKTKGQPREPQVYTLPPSREEMTKNQVSLTCLVEGFYPSDIAVEWESNGQPENNYKTTPPMLDSDGSFFLYSELTVDKSRWQQGNVFSCSVMHEALHNHYTQKSLSLSPGK light: DIVMTQSPDSLAVSLGERATISCRASESVDNYGISFMKWFQQKPGQPPKLLIYAASNQGSGVPDRFSGSGSGTDFTLTISSLQAEDVAVYYCQQSKEVPWTFGGGTKVEIKRTVAAPSVIFPPSDEQLKSGTASVVCLLNNFYPREAKVQWKVDNALQSGNSQESVTEQDSKDSTYSLSSTLTLSKADYEKHKVYACEVTHQGLSSPVTKSFNRGEC
2 | binds | anti-VEGF/anti-DLL4 bispecific antibody 219R45-MB-21R79 (bispecific antibody, human IgG2, Monovalent/bispecific IgG2 heterodimer with charge-modified CH3 domains and two identical light chains) heavy 1: QVQLVQSGAEVKKPGASVKVSCKASGYTFTNYWMHWVRQAPGQGLEWMGDINPSNGRTSYKEKFKRRVTLSVDKSSSTAYMELSSLRSEDTAVYFCTIHYDDKYYPLMDYWGQGTLVTVSSASTKGPSVFPLAPCSRSTSESTAALGCLVKDYFPEPVTVSWNSGALTSGVHTFPAVLQSSGLYSLSSVVTVPSSNFGTQTYTCNVDHKPSNTKVDKTVERKCCVECPPCPAPPVAGPSVFLFPPKPKDTLMISRTPEVTCVVVDVSHEDPEVQFNWYVDGVEVHNAKTKPREEQFNSTFRVVSVLTVVHQDWLNGKEYKCKVSNKGLPAPIEKTISKTKGQPREPQVYTLPPSREKMTKNQVSLTCLVKGFYPSDIAVEWESNGQPENNYKTTPPMLKSDGSFFLYSKLTVDKSRWQQGNVFSCSVMHEALHNHYTQKSLSLSPGK heavy 2: QVQLVQSGAEVKKPGASVKISCKASGYSFTAYYIHWVKQAPGQGLEWIGYIANYNRATNYNQKFKGRVTFTTDTSTSTAYMELRSLRSDDTAVYYCARDYDYDVGMDYWGQGTLVTVSSASTKGPSVFPLAPCSRSTSESTAALGCLVKDYFPEPVTVSWNSGALTSGVHTFPAVLQSSGLYSLSSVVTVPSSNFGTQTYTCNVDHKPSNTKVDKTVERKCCVECPPCPAPPVAGPSVFLFPPKPKDTLMISRTPEVTCVVVDVSHEDPEVQFNWYVDGVEVHNAKTKPREEQFNSTFRVVSVLTVVHQDWLNGKEYKCKVSNKGLPAPIEKTISKTKGQPREPQVYTLPPSREEMTKNQVSLTCLVEGFYPSDIAVEWESNGQPENNYKTTPPMLDSDGSFFLYSELTVDKSRWQQGNVFSCSVMHEALHNHYTQKSLSLSPGK light: DIVMTQSPDSLAVSLGERATISCRASESVDNYGISFMKWFQQKPGQPPKLLIYAASNQGSGVPDRFSGSGSGTDFTLTISSLQAEDVAVYYCQQSKEVPWTFGGGTKVEIKRTVAAPSVIFPPSDEQLKSGTASVVCLLNNFYPREAKVQWKVDNALQSGNSQESVTEQDSKDSTYSLSSTLTLSKADYEKHKVYACEVTHQGLSSPVTKSFNRGEC
3 | binds | anti-VEGF/anti-DLL4 bispecific antibody 219R45-MB-21R75 (bispecific antibody, human IgG2, Monovalent/bispecific IgG2 heterodimer with charge-modified CH3 domains and two identical light chains) heavy 1: QVQLVQSGAEVKKPGASVKVSCKASGYTFTNYWMHWVRQAPGQGLEWMGDINPSNGRTSYKEKFKRRVTLSVDKSSSTAYMELSSLRSEDTAVYFCTIHYDDKYYPLMDYWGQGTLVTVSSASTKGPSVFPLAPCSRSTSESTAALGCLVKDYFPEPVTVSWNSGALTSGVHTFPAVLQSSGLYSLSSVVTVPSSNFGTQTYTCNVDHKPSNTKVDKTVERKCCVECPPCPAPPVAGPSVFLFPPKPKDTLMISRTPEVTCVVVDVSHEDPEVQFNWYVDGVEVHNAKTKPREEQFNSTFRVVSVLTVVHQDWLNGKEYKCKVSNKGLPAPIEKTISKTKGQPREPQVYTLPPSREKMTKNQVSLTCLVKGFYPSDIAVEWESNGQPENNYKTTPPMLKSDGSFFLYSKLTVDKSRWQQGNVFSCSVMHEALHNHYTQKSLSLSPGK heavy 2: QVQLVQSGAEVKKPGASVKISCKASGYSFTAYYIHWVKQAPGQGLEWIGYIAGYKDATNYNQKFKGRVTFTTDTSTSTAYMELRSLRSDDTAVYYCARDYDYDVGMDYWGQGTLVTVSSASTKGPSVFPLAPCSRSTSESTAALGCLVKDYFPEPVTVSWNSGALTSGVHTFPAVLQSSGLYSLSSVVTVPSSNFGTQTYTCNVDHKPSNTKVDKTVERKCCVECPPCPAPPVAGPSVFLFPPKPKDTLMISRTPEVTCVVVDVSHEDPEVQFNWYVDGVEVHNAKTKPREEQFNSTFRVVSVLTVVHQDWLNGKEYKCKVSNKGLPAPIEKTISKTKGQPREPQVYTLPPSREEMTKNQVSLTCLVEGFYPSDIAVEWESNGQPENNYKTTPPMLDSDGSFFLYSELTVDKSRWQQGNVFSCSVMHEALHNHYTQKSLSLSPGK light: DIVMTQSPDSLAVSLGERATISCRASESVDNYGISFMKWFQQKPGQPPKLLIYAASNQGSGVPDRFSGSGSGTDFTLTISSLQAEDVAVYYCQQSKEVPWTFGGGTKVEIKRTVAAPSVIFPPSDEQLKSGTASVVCLLNNFYPREAKVQWKVDNALQSGNSQESVTEQDSKDSTYSLSSTLTLSKADYEKHKVYACEVTHQGLSSPVTKSFNRGEC
4 | binds | anti-VEGF/anti-DLL4 bispecific antibody 219R45-MB-21M18 (bispecific antibody, human IgG2, Monovalent/bispecific (MB) IgG2 heterodimer with charge-modified CH3 domains and two identical light chains) heavy 1: QVQLVQSGAEVKKPGASVKVSCKASGYTFTNYWMHWVRQAPGQGLEWMGDINPSNGRTSYKEKFKRRVTLSVDKSSSTAYMELSSLRSEDTAVYFCTIHYDDKYYPLMDYWGQGTLVTVSSASTKGPSVFPLAPCSRSTSESTAALGCLVKDYFPEPVTVSWNSGALTSGVHTFPAVLQSSGLYSLSSVVTVPSSNFGTQTYTCNVDHKPSNTKVDKTVERKCCVECPPCPAPPVAGPSVFLFPPKPKDTLMISRTPEVTCVVVDVSHEDPEVQFNWYVDGVEVHNAKTKPREEQFNSTFRVVSVLTVVHQDWLNGKEYKCKVSNKGLPAPIEKTISKTKGQPREPQVYTLPPSREKMTKNQVSLTCLVKGFYPSDIAVEWESNGQPENNYKTTPPMLKSDGSFFLYSKLTVDKSRWQQGNVFSCSVMHEALHNHYTQKSLSLSPGK heavy 2: QVQLVQSGAEVKKPGASVKISCKASGYSFTAYYIHWVKQAPGQGLEWIGYISSYNGATNYNQKFKGRVTFTTDTSTSTAYMELRSLRSDDTAVYYCARDYDYDVGMDYWGQGTLVTVSSASTKGPSVFPLAPCSRSTSESTAALGCLVKDYFPEPVTVSWNSGALTSGVHTFPAVLQSSGLYSLSSVVTVPSSNFGTQTYTCNVDHKPSNTKVDKTVERKCCVECPPCPAPPVAGPSVFLFPPKPKDTLMISRTPEVTCVVVDVSHEDPEVQFNWYVDGVEVHNAKTKPREEQFNSTFRVVSVLTVVHQDWLNGKEYKCKVSNKGLPAPIEKTISKTKGQPREPQVYTLPPSREEMTKNQVSLTCLVEGFYPSDIAVEWESNGQPENNYKTTPPMLDSDGSFFLYSELTVDKSRWQQGNVFSCSVMHEALHNHYTQKSLSLSPGK light: DIVMTQSPDSLAVSLGERATISCRASESVDNYGISFMKWFQQKPGQPPKLLIYAASNQGSGVPDRFSGSGSGTDFTLTISSLQAEDVAVYYCQQSKEVPWTFGGGTKVEIKRTVAAPSVIFPPSDEQLKSGTASVVCLLNNFYPREAKVQWKVDNALQSGNSQESVTEQDSKDSTYSLSSTLTLSKADYEKHKVYACEVTHQGLSSPVTKSFNRGEC
